Source: patent US11191811B2, “Osteocalcin as a treatment for frailty associated with aging” (THE TRUSTEES OF COLUMBIA UNIVERSITY IN THE CITY OF NEW YORK, priority 2014, dated 2021)

Test: Circulating osteocalcin and insulin levels after osteocalcin delivery (ELISA)
Format: in vivo, mouse
Protocol: First, whether a single intraperitoneal injection of uncarboxylated mouse osteocalcin (osteocalcin) (100 ng/g of body weight) immediately before exercise would improve the exercise capacity of 3 month-old WT mice was tested.
To determine if osteocalcin has the same ability in older mice, 12 and 15 month-old mice that have low circulating osteocalcin levels were injected prior to running with 500 ng/g of body weight of osteocalcin in order to raise their circulating levels substantially. […] This was due to an increase in the phosphorylation of Akt, AMPK and HSL, as well as in glucose uptake, that occurred to a greater extent in oxidative muscles that express Gprc6a at the highest level, than in glycolytic muscles (FIG. 31C-F). Whether chronic delivery of osteocalcin through mini-pumps (90 ng/hour) for 28 days would increase muscle function in 9 month old mice that have the lowest circulating osteocalcin levels was also tested. […] This improved ability to perform exercise was caused in part by an increase in the expression in muscle of the fatty acid transporter Fatp1 and an activation of the Akt pathway (FIG. 31H-).
Serum osteocalcin, PINP, CTX, and insulin levels were measured using ELISA assays. Blood glucose level was measured using an Accu-Check glucometer. Urine 3-MHT was measured as previously described (Aranibar et al., 2011, Anal. Biochem. 410:84-91). […]

For “uncarboxylated osteocalcin: Recombinant uncarboxylated mouse osteocalcin, bacterially produced, purified on glutathione beads and cleaved from the GST subunit by thrombin (YLGASVPSPDPLEPTREQCELNPACDELSDQYGLKTAYKRIYGITI)”, the circulating insulin levels (3 month-old WT mice, single i.p. injection 100 ng/g) was “without affecting” and the circulating insulin levels (mini-pumps 90 ng/hour for 28 days, 9 month old mice) was “did not affect”.
